In the supplement of paper PMC11438910:
The list shows a part of the results. The signal is at background level for most entries.

Columns and labels:
Assay in all cases: fluorescence intensity of antibody binding to polysaccharide-coupled beads; higher = stronger binding
[1] = molecular target: pneumococcal polysaccharide Pn10A
[2] = molecular target: pneumococcal polysaccharide Pn10B
[3] = molecular target: pneumococcal polysaccharide Pn10C
[4] = molecular target: pneumococcal polysaccharide Pn10F
[5] = molecular target: pneumococcal polysaccharide Pn11A
[6] = molecular target: pneumococcal polysaccharide Pn11B
[7] = molecular target: pneumococcal polysaccharide Pn11C
[8] = molecular target: pneumococcal polysaccharide Pn11D
[9] = molecular target: pneumococcal polysaccharide Pn11F
[10] = molecular target: pneumococcal polysaccharide Pn12A
[11] = molecular target: pneumococcal polysaccharide Pn12B
[12] = molecular target: pneumococcal polysaccharide Pn12F
[13] = molecular target: pneumococcal polysaccharide Pn13
[14] = molecular target: pneumococcal polysaccharide Pn14
[15] = molecular target: pneumococcal polysaccharide Pn15A
[16] = molecular target: pneumococcal polysaccharide Pn15B
[17] = molecular target: pneumococcal polysaccharide Pn15C
[18] = molecular target: pneumococcal polysaccharide Pn15F
[19] = molecular target: pneumococcal polysaccharide Pn16A
[20] = molecular target: pneumococcal polysaccharide Pn16F
[21] = molecular target: pneumococcal polysaccharide Pn17A
[22] = molecular target: pneumococcal polysaccharide Pn17F
[23] = molecular target: pneumococcal polysaccharide Pn18A
[24] = molecular target: pneumococcal polysaccharide Pn18B
[25] = antibody concentration 2337.65 ng/mL
[26] = antibody concentration 12500 ng/mL
[27] = antibody concentration 0.1 ng/mL
[28] = antibody concentration 0.534724 ng/mL
[29] = antibody concentration 2.8593 ng/mL
[30] = antibody concentration 15.2894 ng/mL
[31] = antibody concentration 81.7561 ng/mL
[32] = antibody concentration 437.17 ng/mL

B1: 4-127.1 (protein)
chain 1: QVQLQESGPGLVKPSETLSLTCAVSDYSINTGHGWTWIRQPPGKGLEWIGYIGGSSGSPNYNPSLKSRVTISKDTSKNELSLKLNSVTAADTAVYYCARRIPADRSGNDFWGQGVLVTVSS
chain 2: QSVLTQPPSVSGDPGQRVTISCTGSSSNIGGFYGYWYQQFPGTAPKLLIYDNNKRPSGISDRFSGSKSGTSASLTITGLQPGDEADYYCGSWDSSLSAHVFGSGTKLTVL
[1]; [25]
  fluorescence intensity: 27.2 MFI
[1]; [26]
  fluorescence intensity: 34 MFI
[2]; [27]
  fluorescence intensity: 27.2 MFI
[2]; [28]
  fluorescence intensity: 23.2 MFI
[2]; [29]
  fluorescence intensity: 25 MFI
[2]; [30]
  fluorescence intensity: 24.2 MFI
[2]; [31]
  fluorescence intensity: 24.2 MFI
[2]; [32]
  fluorescence intensity: 22.8 MFI
[2]; [25]
  fluorescence intensity: 25.5 MFI
[2]; [26]
  fluorescence intensity: 27 MFI
[3]; [27]
  fluorescence intensity: 16.5 MFI
[3]; [28]
  fluorescence intensity: 16 MFI
[3]; [29]
  fluorescence intensity: 16 MFI
[3]; [30]
  fluorescence intensity: 16.5 MFI
[3]; [31]
  fluorescence intensity: 16.5 MFI
[3]; [32]
  fluorescence intensity: 18.5 MFI
[3]; [25]
  fluorescence intensity: 18 MFI
[3]; [26]
  fluorescence intensity: 21 MFI
[4]; [27]
  fluorescence intensity: 18.5 MFI
[4]; [28]
  fluorescence intensity: 19.5 MFI
[4]; [29]
  fluorescence intensity: 20.5 MFI
[4]; [30]
  fluorescence intensity: 18.5 MFI
[4]; [31]
  fluorescence intensity: 21 MFI
[4]; [32]
  fluorescence intensity: 19.5 MFI
[4]; [25]
  fluorescence intensity: 20.5 MFI
[4]; [26]
  fluorescence intensity: 24.5 MFI
[5]; [27]
  fluorescence intensity: 30 MFI
[5]; [28]
  fluorescence intensity: 27.5 MFI
[5]; [29]
  fluorescence intensity: 27.2 MFI
[5]; [30]
  fluorescence intensity: 28.5 MFI
[5]; [31]
  fluorescence intensity: 29.5 MFI
[5]; [32]
  fluorescence intensity: 29.5 MFI
[5]; [25]
  fluorescence intensity: 36.5 MFI
[5]; [26]
  fluorescence intensity: 50.8 MFI
[6]; [27]
  fluorescence intensity: 25.5 MFI
[6]; [28]
  fluorescence intensity: 27.5 MFI
[6]; [29]
  fluorescence intensity: 26.8 MFI
[6]; [30]
  fluorescence intensity: 25.2 MFI
[6]; [31]
  fluorescence intensity: 26.5 MFI
[6]; [32]
  fluorescence intensity: 29 MFI
[6]; [25]
  fluorescence intensity: 28 MFI
[6]; [26]
  fluorescence intensity: 30.5 MFI
[7]; [27]
  fluorescence intensity: 23.8 MFI
[7]; [28]
  fluorescence intensity: 21.5 MFI
[7]; [29]
  fluorescence intensity: 21.5 MFI
[7]; [30]
  fluorescence intensity: 22 MFI
[7]; [31]
  fluorescence intensity: 23 MFI
[7]; [32]
  fluorescence intensity: 22.5 MFI
[7]; [25]
  fluorescence intensity: 27 MFI
[7]; [26]
  fluorescence intensity: 60.8 MFI
[8]; [27]
  fluorescence intensity: 26.5 MFI
[8]; [28]
  fluorescence intensity: 24.5 MFI
[8]; [29]
  fluorescence intensity: 23 MFI
[8]; [30]
  fluorescence intensity: 23.8 MFI
[8]; [31]
  fluorescence intensity: 22 MFI
[8]; [32]
  fluorescence intensity: 22.8 MFI
[8]; [25]
  fluorescence intensity: 25 MFI
[8]; [26]
  fluorescence intensity: 42.5 MFI
[9]; [27]
  fluorescence intensity: 14.8 MFI
[9]; [28]
  fluorescence intensity: 12.8 MFI
[9]; [29]
  fluorescence intensity: 14.2 MFI
[9]; [30]
  fluorescence intensity: 15 MFI
[9]; [31]
  fluorescence intensity: 14.5 MFI
[9]; [32]
  fluorescence intensity: 16.5 MFI
[9]; [25]
  fluorescence intensity: 14 MFI
[9]; [26]
  fluorescence intensity: 20 MFI
[10]; [27]
  fluorescence intensity: 15.5 MFI
[10]; [28]
  fluorescence intensity: 15 MFI
[10]; [29]
  fluorescence intensity: 14.5 MFI
[10]; [30]
  fluorescence intensity: 14.5 MFI
[10]; [31]
  fluorescence intensity: 17.2 MFI
[10]; [32]
  fluorescence intensity: 15.8 MFI
[10]; [25]
  fluorescence intensity: 17.5 MFI
[10]; [26]
  fluorescence intensity: 23.5 MFI
[11]; [27]
  fluorescence intensity: 15 MFI
[11]; [28]
  fluorescence intensity: 17 MFI
[11]; [29]
  fluorescence intensity: 14.5 MFI
[11]; [30]
  fluorescence intensity: 16.5 MFI
[11]; [31]
  fluorescence intensity: 16 MFI
[11]; [32]
  fluorescence intensity: 15.5 MFI
[11]; [25]
  fluorescence intensity: 17.5 MFI
[11]; [26]
  fluorescence intensity: 26 MFI
[12]; [27]
  fluorescence intensity: 17.2 MFI
[12]; [28]
  fluorescence intensity: 19.5 MFI
[12]; [29]
  fluorescence intensity: 18 MFI
[12]; [30]
  fluorescence intensity: 20 MFI
[12]; [31]
  fluorescence intensity: 18.5 MFI
[12]; [32]
  fluorescence intensity: 18.5 MFI
[12]; [25]
  fluorescence intensity: 22.5 MFI
[12]; [26]
  fluorescence intensity: 35.5 MFI
[13]; [27]
  fluorescence intensity: 18 MFI
[13]; [28]
  fluorescence intensity: 18 MFI
[13]; [29]
  fluorescence intensity: 19 MFI
[13]; [30]
  fluorescence intensity: 19.2 MFI
[13]; [31]
  fluorescence intensity: 19 MFI
[13]; [32]
  fluorescence intensity: 19 MFI
[13]; [25]
  fluorescence intensity: 20 MFI
[13]; [26]
  fluorescence intensity: 26.5 MFI
[14]; [27]
  fluorescence intensity: 14 MFI
[14]; [28]
  fluorescence intensity: 15.5 MFI
[14]; [29]
  fluorescence intensity: 14.5 MFI
[14]; [30]
  fluorescence intensity: 12 MFI
[14]; [31]
  fluorescence intensity: 16 MFI
[14]; [32]
  fluorescence intensity: 15.5 MFI
[14]; [25]
  fluorescence intensity: 23.5 MFI
[14]; [26]
  fluorescence intensity: 75.5 MFI
[15]; [27]
  fluorescence intensity: 14 MFI
[15]; [28]
  fluorescence intensity: 13 MFI
[15]; [29]
  fluorescence intensity: 11.5 MFI
[15]; [30]
  fluorescence intensity: 13.5 MFI
[15]; [31]
  fluorescence intensity: 14 MFI
[15]; [32]
  fluorescence intensity: 12.5 MFI
[15]; [25]
  fluorescence intensity: 13 MFI
[15]; [26]
  fluorescence intensity: 15 MFI
[16]; [27]
  fluorescence intensity: 18.8 MFI
[16]; [28]
  fluorescence intensity: 18.5 MFI
[16]; [29]
  fluorescence intensity: 19.5 MFI
[16]; [30]
  fluorescence intensity: 19.5 MFI
[16]; [31]
  fluorescence intensity: 20 MFI
[16]; [32]
  fluorescence intensity: 20.5 MFI
[16]; [25]
  fluorescence intensity: 23 MFI
[16]; [26]
  fluorescence intensity: 34.5 MFI
[17]; [27]
  fluorescence intensity: 17.5 MFI
[17]; [28]
  fluorescence intensity: 18 MFI
[17]; [29]
  fluorescence intensity: 16.5 MFI
[17]; [30]
  fluorescence intensity: 16 MFI
[17]; [31]
  fluorescence intensity: 17.2 MFI
[17]; [32]
  fluorescence intensity: 20.5 MFI
[17]; [25]
  fluorescence intensity: 18.5 MFI
[17]; [26]
  fluorescence intensity: 20 MFI
[18]; [27]
  fluorescence intensity: 16.2 MFI
[18]; [28]
  fluorescence intensity: 16.8 MFI
[18]; [29]
  fluorescence intensity: 16.8 MFI
[18]; [30]
  fluorescence intensity: 17.5 MFI
[18]; [31]
  fluorescence intensity: 17.5 MFI
[18]; [32]
  fluorescence intensity: 18.5 MFI
[18]; [25]
  fluorescence intensity: 18 MFI
[18]; [26]
  fluorescence intensity: 23.5 MFI
[19]; [27]
  fluorescence intensity: 17 MFI
[19]; [28]
  fluorescence intensity: 14 MFI
[19]; [29]
  fluorescence intensity: 16 MFI
[19]; [30]
  fluorescence intensity: 14.5 MFI
[19]; [31]
  fluorescence intensity: 14.2 MFI
[19]; [32]
  fluorescence intensity: 14.2 MFI
[19]; [25]
  fluorescence intensity: 16 MFI
[19]; [26]
  fluorescence intensity: 18.5 MFI
[20]; [27]
  fluorescence intensity: 26 MFI
[20]; [28]
  fluorescence intensity: 23 MFI
[20]; [29]
  fluorescence intensity: 25.8 MFI
[20]; [30]
  fluorescence intensity: 24 MFI
[20]; [31]
  fluorescence intensity: 22 MFI
[20]; [32]
  fluorescence intensity: 26.5 MFI
[20]; [25]
  fluorescence intensity: 25 MFI
[20]; [26]
  fluorescence intensity: 32.5 MFI
[21]; [27]
  fluorescence intensity: 20 MFI
[21]; [28]
  fluorescence intensity: 22.2 MFI
[21]; [29]
  fluorescence intensity: 21 MFI
[21]; [30]
  fluorescence intensity: 20.5 MFI
[21]; [31]
  fluorescence intensity: 21.5 MFI
[21]; [32]
  fluorescence intensity: 19 MFI
[21]; [25]
  fluorescence intensity: 22 MFI
[21]; [26]
  fluorescence intensity: 24 MFI
[22]; [27]
  fluorescence intensity: 27.5 MFI
[22]; [28]
  fluorescence intensity: 26 MFI
[22]; [29]
  fluorescence intensity: 27.2 MFI
[22]; [30]
  fluorescence intensity: 26.5 MFI
[22]; [31]
  fluorescence intensity: 25.8 MFI
[22]; [32]
  fluorescence intensity: 26.2 MFI
[22]; [25]
  fluorescence intensity: 27 MFI
[22]; [26]
  fluorescence intensity: 29.5 MFI
[23]; [27]
  fluorescence intensity: 25.8 MFI
[23]; [28]
  fluorescence intensity: 24 MFI
[23]; [29]
  fluorescence intensity: 25 MFI
[23]; [30]
  fluorescence intensity: 23 MFI
[23]; [31]
  fluorescence intensity: 24.5 MFI
[23]; [32]
  fluorescence intensity: 23.5 MFI
[23]; [25]
  fluorescence intensity: 24.5 MFI
[23]; [26]
  fluorescence intensity: 27.5 MFI
[24]; [27]
  fluorescence intensity: 29 MFI
[24]; [28]
  fluorescence intensity: 29.5 MFI
